Converted amounts (≈) assume the structure as drawn.
Assays:
physchem [1] = settings: buffer, pH 6.8
in vivo = settings: Sprague-Dawley, rat, brain, iv, 0.5 mg/kg
physchem [2] = settings: buffer, pH 1.2
in vitro = settings: pig, LLC-PK1
physchem [3] = settings: octanol/water, pH 7.4

C[C@H]1SC(N)=N[C@](C)(c2cc(NC(=O)c3cnc(OCF)cn3)ccc2F)[C@H]1F
solubility thermodynamic at 1 h (physchem [1]): 28.2 µg/mL (≈ 66.3 µM)
Kp at 0.5 h (in vivo): 3.3
solubility thermodynamic at 1 h (physchem [2]): > 1000 µg/mL
Papp (in vitro): 22.7 ×10⁻⁶ cm/s
logD at 1 h, 10000 µM (physchem [3]): 2.4

— ChEMBL document CHEMBL4321815, “Discovery of an Extremely Potent Thiazine-Based β-Secretase Inhibitor with Reduced Cardiovascular and Liver Toxicity at a Low Projected Human Dose” (J Med Chem, 2019)
